In the supplement of paper PMC8728848:
The other results are listed elsewhere or left out.

Experiments:
Experiment in all cases: glycan array binding signal (z-score within array); higher = stronger binding
Conditions in all cases: glycan notation: IUPAC condensed, linker removed
[1] = target: Man(b1-4)GlcNAc
How it was run: (§1)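 The binding signal is a Z-score computed within each array and averaged over linkers. Arrays of the same protein sequence at different concentrations or buffers were also averaged together. Data originate from 3228 arrays in the Consortium for Functional Glycomics database, kept only where the protein sequence was available.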

[2] = target: Neu5Ac(a2-3)Gal
How it was run: as §1

[3] = target: Neu5Ac(a2-3)Gal(b1-3)GalNAc
How it was run: as §1

[4] = target: Neu5Ac(a2-3)Gal(b1-3)GalNAc(b1-3)Gal(a1-4)Gal(b1-4)Glc
How it was run: as §1

[5] = target: Neu5Ac(a2-3)Gal(b1-3)GalNAc(b1-4)[Neu5Ac(a2-3)]Gal(b1-4)Glc
How it was run: as §1

[6] = target: Neu5Ac(a2-3)Gal(b1-3)GalNAc6S
How it was run: as §1

[7] = target: Neu5Ac(a2-3)Gal(b1-3)GlcNAc
How it was run: as §1

[8] = target: Neu5Ac(a2-3)Gal(b1-3)GlcNAc(b1-2)Man(a1-3)[Neu5Ac(a2-3)Gal(b1-3)GlcNAc(b1-2)Man(a1-6)]Man(b1-4)GlcNAc(b1-4)GlcNAc
How it was run: as §1

[9] = target: Neu5Ac(a2-3)Gal(b1-3)GlcNAc(b1-3)Gal(b1-3)GlcNAc
How it was run: as §1

[10] = target: Neu5Ac(a2-3)Gal(b1-3)GlcNAc(b1-3)Gal(b1-4)GlcNAc
How it was run: as §1

[11] = target: Neu5Ac(a2-3)Gal(b1-3)GlcNAc(b1-3)GalNAc
How it was run: as §1

[12] = target: Neu5Ac(a2-3)Gal(b1-3)GlcNAc6S
How it was run: as §1

[13] = target: Neu5Ac(a2-3)Gal(b1-3)[Fuc(a1-4)]GlcNAc
How it was run: as §1

[14] = target: Neu5Ac(a2-3)Gal(b1-3)[Fuc(a1-4)]GlcNAc(b1-3)Gal(b1-3)[Fuc(a1-4)]GlcNAc
How it was run: as §1

[15] = target: Neu5Ac(a2-3)Gal(b1-3)[Fuc(a1-4)]GlcNAc(b1-3)Gal(b1-4)[Fuc(a1-3)]GlcNAc
How it was run: as §1

[16] = target: Neu5Ac(a2-3)Gal(b1-3)[Neu5Ac(a2-3)Gal(b1-4)]GlcNAc
How it was run: as §1

[17] = target: Neu5Ac(a2-3)Gal(b1-3)[Neu5Ac(a2-6)]GalNAc
How it was run: as §1

[18] = target: Neu5Ac(a2-3)Gal(b1-4)Glc
How it was run: as §1

[19] = target: Neu5Ac(a2-3)Gal(b1-4)GlcNAc
How it was run: as §1

[20] = target: Neu5Ac(a2-3)Gal(b1-4)GlcNAc(b1-2)Man(a1-3)[GlcNAc(b1-2)Man(b1-4)GlcNAc(b1-2)Man(a1-6)]Man(b1-4)GlcNAc(b1-4)GlcNAc
How it was run: as §1

[21] = target: Neu5Ac(a2-3)Gal(b1-4)GlcNAc(b1-2)Man(a1-3)[Neu5Ac(a2-6)Gal(b1-4)GlcNAc(b1-2)Man(a1-6)]Man(b1-4)GlcNAc(b1-4)GlcNAc
How it was run: as §1

[22] = target: Neu5Ac(a2-3)Gal(b1-4)GlcNAc(b1-3)Gal(b1-3)GlcNAc
How it was run: as §1

[23] = target: Neu5Ac(a2-3)Gal(b1-4)GlcNAc(b1-3)Gal(b1-4)GlcNAc
How it was run: as §1

[24] = target: Neu5Ac(a2-3)Gal(b1-4)GlcNAc(b1-3)Gal(b1-4)GlcNAc(b1-3)Gal(b1-4)GlcNAc
How it was run: as §1

[25] = target: Neu5Ac(a2-3)Gal(b1-4)GlcNAc(b1-3)Gal(b1-4)[Fuc(a1-3)]GlcNAc
How it was run: as §1

[26] = target: Neu5Ac(a2-3)Gal(b1-4)GlcNAc(b1-3)GalNAc
How it was run: as §1

[27] = target: Neu5Ac(a2-3)Gal(b1-4)GlcNAc(b1-6)[Gal(b1-3)]GalNAc
How it was run: as §1

[28] = target: Neu5Ac(a2-3)Gal(b1-4)GlcNAc(b1-6)[Neu5Ac(a2-3)Gal(b1-3)]GalNAc
How it was run: as §1

[29] = target: Neu5Ac(a2-3)Gal(b1-4)GlcNAc6S
How it was run: as §1

[30] = target: Neu5Ac(a2-3)Gal(b1-4)[Fuc(a1-3)]GlcNAc
How it was run: as §1

[31] = target: Neu5Ac(a2-3)Gal(b1-4)[Fuc(a1-3)]GlcNAc(b1-3)Gal
How it was run: as §1

[32] = target: Neu5Ac(a2-3)Gal(b1-4)[Fuc(a1-3)]GlcNAc(b1-3)Gal(b1-4)GlcNAc
How it was run: as §1

[33] = target: Neu5Ac(a2-3)Gal(b1-4)[Fuc(a1-3)]GlcNAc(b1-3)Gal(b1-4)[Fuc(a1-3)]GlcNAc(b1-3)Gal(b1-4)[Fuc(a1-3)]GlcNAc
How it was run: as §1

[34] = target: Neu5Ac(a2-3)Gal(b1-4)[Fuc(a1-3)]GlcNAc(b1-3)GalNAc
How it was run: as §1

[35] = target: Neu5Ac(a2-3)Gal(b1-4)[Fuc(a1-3)]GlcNAc(b1-6)[Gal(b1-3)]GalNAc
How it was run: as §1

[36] = target: Neu5Ac(a2-3)Gal(b1-4)[Fuc(a1-3)]GlcNAc(b1-6)[Neu5Ac(a2-3)Gal(b1-3)]GalNAc
How it was run: as §1

[37] = target: Neu5Ac(a2-3)Gal(b1-4)[Fuc(a1-3)]GlcNAc6S
How it was run: as §1

[38] = target: Neu5Ac(a2-3)Gal6S(b1-4)GlcNAc
How it was run: as §1

B1: SRS6 (Toxoplasma gondii), Q9NH12 (protein)
chain: MARTGSMQQRRGGFQTTARMLMAVCVSGVLLLSSGPSSANKLTEGQQNQNSGPGAATQEGPTIEGAVAKCVLKTTAAENGSSRAKNTTGLTLSKENLVVSLQCSGEKNAIVPKDQKKVCSAAPNAKVADCKGADTDKQVTLKSLLGTSGDIQWEKTIVSTDNKGEVMTLKIKESELPLFDKAFFVGCEEDKAQTRTSQATECKVNVSVKARPSTVGENNVVTCAYGKDSNPRPLEVEMSADNDTLTIDCGTDGSLKPTKYTEEFCVTDNSQLESCTTKKFSEILPTFLPSWWVSDSQNGSAKLTIPESGFPEEQQQFRLGCVPKKTTQSPQANPSVKTEKEEGAQNTDASTSNCSVIVTVKASNFSSLASSIAPTAAVAGGAAALTGFLVGSF
- glycan array binding signal (z-score) [1]: -0.28
- glycan array binding signal (z-score) [2]: 0.442
- glycan array binding signal (z-score) [3]: -0.04
- glycan array binding signal (z-score) [4]: 0.94
- glycan array binding signal (z-score) [5]: 0.148
- glycan array binding signal (z-score) [6]: 0.685
- glycan array binding signal (z-score) [7]: -0.625
- glycan array binding signal (z-score) [8]: -0.868
- glycan array binding signal (z-score) [9]: 0.353
- glycan array binding signal (z-score) [10]: -0.41
- glycan array binding signal (z-score) [11]: 1.46
- glycan array binding signal (z-score) [12]: 0.818
- glycan array binding signal (z-score) [13]: -0.244
- glycan array binding signal (z-score) [14]: 1.32
- glycan array binding signal (z-score) [15]: -0.083
- glycan array binding signal (z-score) [16]: -1.11
- glycan array binding signal (z-score) [17]: -0.198
- glycan array binding signal (z-score) [18]: -0.824
- glycan array binding signal (z-score) [19]: -0.934
- glycan array binding signal (z-score) [20]: 0.985
- glycan array binding signal (z-score) [21]: -0.635
- glycan array binding signal (z-score) [22]: -0.529
- glycan array binding signal (z-score) [23]: 2.13
- glycan array binding signal (z-score) [24]: 0.084
- glycan array binding signal (z-score) [25]: -0.259
- glycan array binding signal (z-score) [26]: -0.207
- glycan array binding signal (z-score) [27]: 0.035
- glycan array binding signal (z-score) [28]: -1.12
- glycan array binding signal (z-score) [29]: 0.75
- glycan array binding signal (z-score) [30]: -0.808
- glycan array binding signal (z-score) [31]: -0.979
- glycan array binding signal (z-score) [32]: 1.16
- glycan array binding signal (z-score) [33]: -0.225
- glycan array binding signal (z-score) [34]: 0.946
- glycan array binding signal (z-score) [35]: -0.157
- glycan array binding signal (z-score) [36]: 0.381
- glycan array binding signal (z-score) [37]: 0.07
- glycan array binding signal (z-score) [38]: 0.781
